Melanoma cell counts after drug treatment

All values are for the listed drug together with U73122 (2 µM): COc1ccc2c(c1)CCC1C2CCC2(C)C(NCCCCCCN3C(=O)C=CC3=O)CCC12 (stereo not drawn)

Drugs:
YM155 (0.002 µM): COCC[n+]1c2c(n(Cc3cnccn3)c1C)C(=O)c1ccccc1C2=O
ruxolitinib (5 µM): N#CC[C@H](C1CCCC1)n1cc(-c2ncnc3[nH]ccc23)cn1
temozolomide (10 µM): Cn1nnc2c(C(N)=O)ncn2c1=O
LFM-A13 (10 µM): C/C(O)=C(\C#N)C(=O)Nc1cc(Br)ccc1Br
everolimus (0.1 µM): CO[C@H]1C[C@@H]2CC[C@@H](C)[C@@](O)(O2)C(=O)C(=O)N2CCCC[C@H]2C(=O)O[C@H]([C@H](C)C[C@@H]2CC[C@@H](OCCO)[C@H](OC)C2)CC(=O)[C@H](C)/C=C(\C)[C@@H](O)[C@@H](OC)C(=O)[C@H](C)C[C@H](C)/C=C/C=C/C=C/1C
VX-702 (2 µM): NC(=O)c1ccc(N(C(N)=O)c2c(F)cccc2F)nc1-c1ccc(F)cc1F
cisplatin (8 µM): N.N.[Cl][Pt][Cl]
vatalanib (10 µM): Clc1ccc(Nc2nnc(Cc3ccncc3)c3ccccc23)cc1
OSU-03012 (5 µM): NCC(=O)Nc1ccc(-n2nc(C(F)(F)F)cc2-c2ccc3c(ccc4ccccc43)c2)cc1
PF-04217903 (5 µM): OCCn1cc(-c2cnc3nnn(Cc4ccc5ncccc5c4)c3n2)cn1
MK-2206 (2 µM): NC1(c2ccc(-c3nc4ccn5c(=O)[nH]nc5c4cc3-c3ccccc3)cc2)CCC1
cediranib (2 µM): COc1cc2c(Oc3ccc4[nH]c(C)cc4c3F)ncnc2cc1OCCCN1CCCC1

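The test systems are human melanoma cell lines, treated with two drugs together for 72 h and then stained and imaged. Each value is the count of nuclei relative to DMSO-treated wells, in %, so that 100 equals the control. Every drug was used at one fixed concentration, the higher of two screened. No replicate spread is given; individual values may be noisy.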
An unselected part of the screen is shown.

With VX-702 the screen read WM451Lu: 78.6; COLO 829: 89.5; COLO 800: 68.0; WM3619: 53.8; COLO 792: 90.8; C32: 51.5.
With everolimus the screen read WM451Lu: 81.3; COLO 829: 68.4; COLO 800: 39.5; WM3619: 38.0; COLO 792: 66.6; C32: 54.4.
With YM155 the screen read WM451Lu: 47.2; COLO 829: 96.1; COLO 800: 90.2; WM3619: 91.2; COLO 792: 125; C32: 104.
With PF-04217903 the screen read WM451Lu: 111; COLO 829: 79.4; COLO 800: 69.4; WM3619: 90.2; COLO 792: 106; C32: 95.6.
With LFM-A13 the screen read WM451Lu: 89.3; COLO 829: 103; COLO 800: 66.2; WM3619: 65.0; COLO 792: 98.0; C32: 76.1.
With ruxolitinib the screen read WM451Lu: 90.3; COLO 829: 114; COLO 800: 77.1; WM3619: 86.3; COLO 792: 89.6; C32: 63.9.
With OSU-03012 the screen read WM451Lu: 76.4; COLO 829: 67.4; COLO 800: 66.5; WM3619: 65.0; COLO 792: 73.3; C32: 75.6.
With cediranib the screen read WM451Lu: 110; COLO 829: 127; COLO 800: 83.7; WM3619: 113; COLO 792: 89.5; C32: 67.6.
With vatalanib the screen read WM451Lu: 93.6; COLO 829: 41.9; COLO 800: 20.3; WM3619: 48.5; COLO 792: 46.2; C32: 42.9.
With MK-2206 the screen read WM451Lu: 84.9; COLO 829: 76.9; COLO 800: 60.2; WM3619: 96.5; COLO 792: 53.7; C32: 59.9.
With temozolomide the screen read WM451Lu: 96.2; COLO 829: 82.8; COLO 800: 54.9; WM3619: 39.2; COLO 792: 86.1; C32: 85.1.
With cisplatin the screen read WM451Lu: 72.4; COLO 829: 59.6; COLO 800: 32.2; WM3619: 35.7; COLO 792: 76.8; C32: 33.2.

Source: doi:10.1371/journal.pone.0140310, primary screening data, rounded.